Data source: PubChem BioAssay AID1224830 (NIAID, 2016)

- Purpose: 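Genes whose knock-down alters the TNF-alpha reporter response to LPS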 (primary screen)
- Cells: human THP-1 monocytic leukaemia cells, TNF dual-luciferase reporter clone, PMA-differentiated to macrophage-like cells
- Reagent: siRNA pool against human genes, 50 nM
- Timing: LPS for 4 h, given about 3 days after siRNA transfection
- Treatment: bacterial LPS (TLR4 ligand), 10 ng/ml
- Measured: 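Ratio of firefly to renilla light, scaled to the plate median and expressed as a robust z-score per replicate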
- Scale: TNF reporter robust z-score: higher = stronger TNF reporter response to LPS
- Hit rule: 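a well is active when its z-score exceeds 2.8 or falls below -1.5; control wells carry no call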
Shown is one part, drawn at random, of about 18,000 reagents tested. Over the whole deposit, about 2,900 (16%) were called active. 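Calls are made per well; low scores hint the gene aids the LPS response, high scores that it dampens it.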 A number with no mark means an inactive call. Repeated entries: four replicate wells of each siRNA pool. Reagent sequences are not shown.

Gene | TNF reporter robust z-score
DUSP6 | -1.46
DUSP6 | -1.37
DUSP6 | -2.12 (active)
DUSP6 | -1.69 (active)
PGA3 | 0.8
PGA3 | 0.53
PGA3 | 0.19
ELK1 | 0.19
ELK1 | 0.36
ELK1 | 0.71
ELK1 | 0.58
IFNL1 | -0.32
IFNL1 | 0.09
IFNL1 | 0.74
IFNL1 | 0.22
ADAMTSL4 | -0.73
ADAMTSL4 | 0.37
ADAMTSL4 | -0.15
ADAMTSL4 | 0.4
NR1I3 | 1.02
NR1I3 | 1.29
NR1I3 | 1.52
NR1I3 | 1.35
PDE4A | -1.16
PDE4A | -0.76
PDE4A | -0.6
PNPO | -0.78
PNPO | 0.32
PNPO | -0.29
PNPO | 0.89
MAP3K14 | 1.25
MAP3K14 | 0.16
MAP3K14 | 0.23
MAP3K14 | -0.79
EFS | -1.78 (active)
EFS | -1.71 (active)
EFS | -1.83 (active)
EFS | -2.01 (active)
SUPT7L | -1.47
SUPT7L | 0.02
SUPT7L | 0.43
SUPT7L | -0.42
PF4V1 | 0.55
PF4V1 | 1.45
PF4V1 | 1.5
PF4V1 | 1.25
PLB1 | 4.69 (active)
PLB1 | 0.44
PLB1 | 1.09
PLB1 | -0.13
CFAP161 | -2.11 (active)
CFAP161 | -1.59 (active)
CFAP161 | -1.37
CFAP161 | -1.27
HMGCS2 | -0.81
HMGCS2 | -0.98
HMGCS2 | -0.97
HMGCS2 | -0.58
FGF2 | 0.59
FGF2 | 1.14
FGF2 | 1.25
FGF2 | 0.99
GCDH | -0.17
GCDH | 0.27
GCDH | -0.18
GCDH | 2.07
DEFB136 | -1.13
DEFB136 | 0.75
DEFB136 | -0.82
DEFB136 | -0.72
EPHA1 | -0.1
EPHA1 | -1.04
EPHA1 | -0.05
EPHA1 | 0.86
LOC284009 | -0.74
LOC284009 | -0.88
LOC284009 | -1.42
LOC284009 | -0.66
ZNF184 | 2.67
ZNF184 | 2.13
ZNF184 | 1.56
ZNF184 | 1.86
CNOT6 | 0.17
CNOT6 | 2.7
CNOT6 | 2.38
CNOT6 | 2.07

15 entries from above, arranged by “TNF reporter robust z-score”, low to high.
Gene | TNF reporter robust z-score
DEFB136 | -1.13
HMGCS2 | -0.97
DEFB136 | -0.82
DEFB136 | -0.72
HMGCS2 | -0.58
GCDH | -0.18
GCDH | -0.17
EPHA1 | -0.1
GCDH | 0.27
FGF2 | 0.59
DEFB136 | 0.75
FGF2 | 0.99
FGF2 | 1.14
FGF2 | 1.25
GCDH | 2.07

Further records follow.
Gene | TNF reporter robust z-score
FOCAD | -0.31
FOCAD | 0.26
FOCAD | -0.37
FOCAD | -0.32
ZNF514 | -1.29
ZNF514 | -0.93
ZNF514 | -1.21
ZNF514 | -0.75
CCT3 | -0.94
CCT3 | -0.41
CCT3 | 1.03
CCT3 | 0.56
ZNF7 | 0.1
ZNF7 | -0.13
ZNF7 | 0.43
ZNF7 | 0.65
PCDH9 | 0.17
PCDH9 | 0.45
PCDH9 | 0.48
PCDH9 | 1.34
ACOT4 | -0.5
ACOT4 | -1.17
ACOT4 | -1.08
ACOT4 | 0.4
GPR4 | -0.96
GPR4 | -0.52
GPR4 | -1.03
GPR4 | 0.8
GNAS | -0.4
GNAS | -0.27
GNAS | -0.2
GNAS | 0.12
TMEM214 | 1.64
TMEM214 | -0.06
TMEM214 | 0.1
TMEM214 | -0.14
PCDHGA4 | -0.57
PCDHGA4 | -0.17
PCDHGA4 | -0.42
PCDHGA4 | 0.01
SIT1 | -1.06
SIT1 | -1.43
SIT1 | -0.51
SIT1 | -0.89
CYP7B1 | 0.22
CYP7B1 | 0.34
CYP7B1 | -0.3
CYP7B1 | 0.88
NUB1 | 1.25
NUB1 | 0.62
NUB1 | 2.23
NUB1 | 0.68
SRRM1 | -0.13
SRRM1 | -1.05
SRRM1 | -1.14
SRRM1 | -0.92
